Measurements: patent publication US20070254288A1, “Diagnostic methods for pain sensitivity and chronicity and for tetrahydrobiopterin-related disorders” (The General Hospital Corporation, priority 2005, published 2007)
“Also recorded” adds a separate entry of the source. Structures can show the parent of a compound that is named as a salt. For at least one compound, name, drawing or mass did not settle the structure.

What was measured:
Sprague Dawley rats [1] = test: Nociceptive thresholds in naïve animals (von Frey, radiant heat); format: in vivo, rat; details: intrathecal 10 μg, 10 μl, dihydrochloride
Experimental: (§1) Animals were fully habituated and experiments performed blinded. Threshold for eliciting a withdrawal reflex to graded strength monofilament von Frey hairs (0.0174-20.9 g) was measured to assess mechanical allodynia. To measure cold allodynia, a drop of acetone was applied to the plantar hindpaw, and the time the animal spent licking, shaking or lifting the paw was measured (Tegeder et al., J Neurosci 24:1637-1645 (2004)). Paw withdrawal latency to radiant heat (lamp with 8 V, 50 W) assessed heat evoked pain (Ugo Basile).
(§2) DAHP was dissolved in 1:1 polyethylene glycol (PEG400) and 1×PBS, pH 7.4 (15 mg/ml) and administered i.p. or intrathecally (250 μg/kg/h; 5 μl/h). For all i.t. injections/infusions a spinal catheter (Recathco) was used and implanted as described (Kunz et al., Pain 110:409-418 (2004)). Infusions with an osmotic pump (Alzet). 6R-BH4 in ACSF was injected i.t. (10 μg, single 10 μl injection). N-acetyl-serotonin in 1×PBS pH 7.4 containing 3% ethanol was delivered by i.t. infusion (100 μg/kg/h; 5 μl/h). Control animals received the appropriate vehicle. All drugs from Sigma-Aldrich.

[2] = tested on: cultured adult rat DRG neurons; test: Calcium imaging (fura-2) in cultured adult rat DRG neurons; format: cell-based; details: 0.3-10 μM; dihydrochloride
Experimental: Miniature EPSCs were recorded at −70 mV by whole cell patch clamp in adult rat transverse spinal cord slices (Baba et al., Mol Cell Neurosci 24:818-830 (2003)). Intracellular [Ca]I was measured fluorometrically (ΔF 340/380) in cultured adult DRG neurons loaded with fura-2. 6R-BH4 (0.3-10 μM), DEA-NONOate (50 μM), and L-NAME (10-100 μM) were applied using a multibarrel fast drug delivery system.

[3] = tested on: superficial dorsal horn neurons; test: Whole cell patch clamp of miniature EPSCs in adult rat spinal cord slices; format: cell-based; details: bath-applied 10 μM n=6; 20 μM n=2; data not shown; dihydrochloride
Sprague Dawley rats [4] = test: Spared nerve injury (SNI) model: mechanical (von Frey) and cold (acetone) allodynia; format: in vivo, rat; details: intrathecal 10 μg, six days after SNI
Experimental: (§3) Adult male Sprague Dawley rats (150-200 g, Charles River Laboratories) were used. For the SNI model two branches of the sciatic nerve, the common peroneal and the tibial nerve, were ligated and sectioned distally. For the CCI model the sciatic nerve was constricted with three Dexon 4/0 ligatures. For the SNL model, the L5 spinal nerve was tightly ligated. All surgical procedures were under isoflurane anesthesia. For the Formalin test 50 μl of 5% formaldehyde solution were injected into a hindpaw and flinches were counted per minute up to 60 min. Paw inflammation was induced with 50 μl complete Freund's adjuvant (CFA) injected into a hindpaw. Nociceptive analysis was done blinded, and animals were fully habituated to the room and test cages. Mechanical allodynia was assessed with graded strength monofilament von Frey hairs (0.0174-20.9 gram, log scaled), cold allodynia with the acetone test and heat hyperalgesia with the Hargreaves test. Drugs (Sigma) were injected intraperitoneally or intrathecally through a spinal catheter, osmotic pumps were used for infusion. Control animals received vehicle. L4/5 DRG and spinal cord tissue was processed for QRT-PCR, Western blotting, in situ hybridization and immunofluorescence studies.
as §1, §2
Data are means ±SEM. The number of animals per group was 9-12. Areas under the “effect versus time” curves (AUC) were calculated using the linear trapezoidal rule and compared with Student's t-test or univariate analysis of variance (ANOVA) with subsequent t-tests employing a Bonferroni alpha-correction for multiple comparisons. All other data were analyzed with univariate ANOVA or ANOVA for repeated measurements. P at 0.05 for all tests.

Sprague Dawley rats [5] = test: CFA-induced paw inflammation: thermal hyperalgesia (Hargreaves); format: in vivo, rat; details: intrathecal 10 μg, 5 days after CFA
Experimental: as §3, with “Nociceptive analysis was done blinded, and animals were fully habituated to the room and test cages.” left out, “Drugs (Sigma) were injected intraperitoneally or intrathecally through a spinal catheter, osmotic pumps were used for infusion. Control animals received vehicle. L4/5 DRG and spinal cord tissue was processed for QRT-PCR, Western blotting, in situ hybridization and immunofluorescence studies.” left out
For the Formalin test 50 μl of 5% formaldehyde solution were injected into one hindpaw and flinches were counted per minute up to 60 min. […]
Animals were fully habituated and experiments performed blinded. Threshold for eliciting a withdrawal reflex to graded strength monofilament von Frey hairs (0.0174-20.9 g) was measured to assess mechanical allodynia. […] Paw withdrawal latency to radiant heat (lamp with 8 V, 50 W) assessed heat evoked pain (Ugo Basile).
Data are means ±SEM. […] All other data were analyzed with univariate ANOVA or ANOVA for repeated measurements. […]

GCH1 = test: Forskolin stimulation of EBV-immortalized leukocytes: GCH1 mRNA, protein, biopterin; format: cell-based, human; details: 10 μM, 12 h

| SMILES | heat pain sensitivity (noxious radiant heat) (Sprague Dawley rats [1]) | intracellular calcium levels [2] | frequency or amplitude of AMPA receptor mediated mEPSCs, direct inward currents [3] | cold allodynia (Sprague Dawley rats [4]; dihydrochloride) | mechanical allodynia (Sprague Dawley rats [4]; dihydrochloride) | cold allodynia (Sprague Dawley rats [4]; listed as BH4, dihydrochloride) | mechanical allodynia (Sprague Dawley rats [4]; listed as BH4, dihydrochloride) | heat pain sensitivity (Sprague Dawley rats [5]; dihydrochloride) | heat pain sensitivity (Sprague Dawley rats [5]; listed as BH4, dihydrochloride) | upregulation of the GCH1 transcript (GCH1; leukocytes with one or two copies of the haplotype versus none) | GCH1 mRNA, protein and BH4 production (GCH1; patients with no copies of the pain protective haplotype) |
| --- | --- | --- | --- | --- | --- | --- | --- | --- | --- | --- | --- |
| C[C@H](O)[C@H](O)[C@H]1CNc2nc(N)[nH]c(=O)c2N1 [6R-BH4, (6R)-5,6,7,8-tetrahydrobiopterin dihydrochloride] | significantly increased heat pain sensitivity; also recorded: prompt and long lasting increase in response to noxious radiant heat | dose-dependent increase of intracellular calcium; also recorded: dose-dependently increased intracellular calcium levels | does not produce a change; also recorded: did not change the frequency or amplitude | not significant | further increased mechanical | further increases pain sensitivity | further increases pain sensitivity | further increased | further increased heat pain sensitivity |  |  |
| C=C[C@@]1(C)CC(=O)[C@]2(O)[C@@]3(C)[C@@H](O)CCC(C)(C)[C@@H]3[C@H](O)[C@H](OC(C)=O)[C@@]2(C)O1 [forskolin] |  |  |  |  |  |  |  |  |  | significantly reduced | increased GCH1 mRNA |
